Reference: the supplement of paper PMC12823440, “Inhibitors supercharge kinase turnover through native proteolytic circuits” (Nature, 2025)
Counter-ions that a name gives are not always drawn. The list shows a part of the results. Hit calls seldom repeat between salt and free forms of one compound.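 In K562 cells expressing nanoluciferase-fused kinases, luminescence was recorded at 4 h intervals between 2 and 18 h, normalized as percent of control with DMSO at 100% and a positive control at 0%. A significant (2 sigma) signal drop marks a time point as decreased. The authors' rule for a hit is not shown and takes in more than the number of time points.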

The chains behind the UniProt entries cited, without tags or fusion partners. Where a name states a change or a piece, a line headed by the entry shows the natural chain unless it says otherwise.
UniProt Q9UQM7, whole entry: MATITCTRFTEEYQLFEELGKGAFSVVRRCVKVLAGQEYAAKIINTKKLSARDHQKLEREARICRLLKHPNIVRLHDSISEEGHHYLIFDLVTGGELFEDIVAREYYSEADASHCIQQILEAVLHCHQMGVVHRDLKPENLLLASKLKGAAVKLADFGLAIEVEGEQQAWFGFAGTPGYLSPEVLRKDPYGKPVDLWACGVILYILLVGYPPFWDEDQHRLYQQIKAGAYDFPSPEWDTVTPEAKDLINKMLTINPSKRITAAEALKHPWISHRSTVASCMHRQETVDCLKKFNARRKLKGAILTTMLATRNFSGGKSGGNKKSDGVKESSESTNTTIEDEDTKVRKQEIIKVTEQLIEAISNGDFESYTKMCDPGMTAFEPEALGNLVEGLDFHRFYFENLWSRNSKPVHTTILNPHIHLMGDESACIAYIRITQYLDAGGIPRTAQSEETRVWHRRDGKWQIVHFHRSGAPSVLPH
UniProt Q13555: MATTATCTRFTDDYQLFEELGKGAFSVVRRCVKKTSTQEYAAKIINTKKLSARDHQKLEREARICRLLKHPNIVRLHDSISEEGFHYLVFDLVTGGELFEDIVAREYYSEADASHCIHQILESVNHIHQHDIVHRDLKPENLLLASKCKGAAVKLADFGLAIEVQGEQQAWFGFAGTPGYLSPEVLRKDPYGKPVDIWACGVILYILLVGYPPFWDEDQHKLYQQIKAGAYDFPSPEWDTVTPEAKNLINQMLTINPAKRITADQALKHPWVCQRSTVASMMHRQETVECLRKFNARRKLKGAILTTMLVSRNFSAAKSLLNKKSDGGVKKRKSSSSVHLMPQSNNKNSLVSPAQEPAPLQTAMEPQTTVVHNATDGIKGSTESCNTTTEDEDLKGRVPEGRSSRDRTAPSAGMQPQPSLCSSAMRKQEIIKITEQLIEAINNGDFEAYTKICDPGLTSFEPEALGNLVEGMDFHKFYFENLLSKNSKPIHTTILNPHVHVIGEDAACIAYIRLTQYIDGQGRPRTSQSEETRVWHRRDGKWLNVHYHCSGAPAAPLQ
UniProt Q15131: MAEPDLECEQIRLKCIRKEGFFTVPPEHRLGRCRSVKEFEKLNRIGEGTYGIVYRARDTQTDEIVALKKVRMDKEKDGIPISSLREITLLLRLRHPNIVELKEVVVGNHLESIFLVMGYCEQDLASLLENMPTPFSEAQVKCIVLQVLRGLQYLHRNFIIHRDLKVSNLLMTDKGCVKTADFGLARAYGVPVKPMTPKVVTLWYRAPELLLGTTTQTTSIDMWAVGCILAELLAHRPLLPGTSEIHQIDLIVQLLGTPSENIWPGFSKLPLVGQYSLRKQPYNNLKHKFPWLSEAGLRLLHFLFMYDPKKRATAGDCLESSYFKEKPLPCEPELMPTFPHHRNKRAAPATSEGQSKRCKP
UniProt Q00526: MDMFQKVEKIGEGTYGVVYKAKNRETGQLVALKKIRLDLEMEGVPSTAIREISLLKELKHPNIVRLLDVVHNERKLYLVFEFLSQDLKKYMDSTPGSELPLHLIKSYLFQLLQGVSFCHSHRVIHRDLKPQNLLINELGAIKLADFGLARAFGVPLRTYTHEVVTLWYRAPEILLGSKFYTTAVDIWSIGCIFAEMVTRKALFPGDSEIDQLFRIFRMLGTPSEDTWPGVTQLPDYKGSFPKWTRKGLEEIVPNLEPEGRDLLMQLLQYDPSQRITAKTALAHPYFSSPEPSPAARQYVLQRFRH
UniProt Q00535, whole entry, looked up: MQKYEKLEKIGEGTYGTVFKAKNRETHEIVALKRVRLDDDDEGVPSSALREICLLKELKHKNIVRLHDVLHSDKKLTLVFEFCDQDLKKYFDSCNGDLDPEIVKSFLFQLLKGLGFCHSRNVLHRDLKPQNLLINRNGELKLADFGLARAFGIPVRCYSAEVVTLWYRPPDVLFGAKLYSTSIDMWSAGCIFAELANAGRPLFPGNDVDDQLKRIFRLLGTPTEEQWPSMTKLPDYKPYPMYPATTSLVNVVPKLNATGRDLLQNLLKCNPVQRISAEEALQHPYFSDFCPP
UniProt Q00534, whole entry: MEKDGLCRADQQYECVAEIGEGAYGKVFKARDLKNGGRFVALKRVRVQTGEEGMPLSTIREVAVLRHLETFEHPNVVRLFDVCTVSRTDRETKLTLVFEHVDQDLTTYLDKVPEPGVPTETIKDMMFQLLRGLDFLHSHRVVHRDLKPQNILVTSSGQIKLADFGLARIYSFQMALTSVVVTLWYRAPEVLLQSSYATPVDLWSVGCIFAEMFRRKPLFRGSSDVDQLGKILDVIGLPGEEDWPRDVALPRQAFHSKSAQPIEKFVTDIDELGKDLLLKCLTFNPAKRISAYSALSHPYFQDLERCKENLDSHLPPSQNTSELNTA
UniProt O96017, whole entry: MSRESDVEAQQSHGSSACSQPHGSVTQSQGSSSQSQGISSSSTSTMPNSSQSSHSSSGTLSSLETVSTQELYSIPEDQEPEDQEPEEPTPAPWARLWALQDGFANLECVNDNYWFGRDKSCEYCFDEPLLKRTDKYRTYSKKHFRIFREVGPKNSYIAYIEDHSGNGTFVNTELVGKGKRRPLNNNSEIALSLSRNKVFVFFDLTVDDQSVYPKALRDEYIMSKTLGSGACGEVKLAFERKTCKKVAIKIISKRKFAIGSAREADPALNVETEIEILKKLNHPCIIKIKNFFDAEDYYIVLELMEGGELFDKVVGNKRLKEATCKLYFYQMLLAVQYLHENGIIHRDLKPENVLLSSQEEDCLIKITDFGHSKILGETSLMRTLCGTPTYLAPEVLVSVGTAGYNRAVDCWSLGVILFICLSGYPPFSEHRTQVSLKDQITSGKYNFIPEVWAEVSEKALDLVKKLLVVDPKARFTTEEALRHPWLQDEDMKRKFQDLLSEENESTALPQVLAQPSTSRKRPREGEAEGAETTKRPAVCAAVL
UniProt P07333, whole entry: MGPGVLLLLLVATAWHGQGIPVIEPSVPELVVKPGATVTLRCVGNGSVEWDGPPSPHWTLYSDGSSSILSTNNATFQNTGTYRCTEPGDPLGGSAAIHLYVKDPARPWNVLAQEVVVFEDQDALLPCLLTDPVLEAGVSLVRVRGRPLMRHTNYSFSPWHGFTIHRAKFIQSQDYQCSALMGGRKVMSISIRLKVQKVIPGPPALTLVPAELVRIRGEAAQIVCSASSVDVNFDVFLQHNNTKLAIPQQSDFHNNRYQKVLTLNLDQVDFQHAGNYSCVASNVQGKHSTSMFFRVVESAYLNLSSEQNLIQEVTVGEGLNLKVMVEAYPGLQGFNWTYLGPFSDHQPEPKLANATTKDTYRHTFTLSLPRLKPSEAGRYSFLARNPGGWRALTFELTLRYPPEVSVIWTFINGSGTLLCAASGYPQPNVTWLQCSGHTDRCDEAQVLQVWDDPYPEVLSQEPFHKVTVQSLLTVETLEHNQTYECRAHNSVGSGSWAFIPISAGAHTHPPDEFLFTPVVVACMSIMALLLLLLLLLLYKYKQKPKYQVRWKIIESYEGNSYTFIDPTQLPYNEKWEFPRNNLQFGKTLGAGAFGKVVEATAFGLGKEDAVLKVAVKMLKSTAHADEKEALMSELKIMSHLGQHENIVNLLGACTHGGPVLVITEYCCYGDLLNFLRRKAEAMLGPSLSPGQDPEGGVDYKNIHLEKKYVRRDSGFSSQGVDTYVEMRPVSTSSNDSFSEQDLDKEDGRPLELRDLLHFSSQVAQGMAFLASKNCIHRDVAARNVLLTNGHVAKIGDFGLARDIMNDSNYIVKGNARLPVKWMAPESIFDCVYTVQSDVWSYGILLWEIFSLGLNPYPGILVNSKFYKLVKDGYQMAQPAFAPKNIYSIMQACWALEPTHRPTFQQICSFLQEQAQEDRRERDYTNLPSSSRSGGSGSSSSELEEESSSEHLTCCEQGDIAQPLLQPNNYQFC
UniProt P41240: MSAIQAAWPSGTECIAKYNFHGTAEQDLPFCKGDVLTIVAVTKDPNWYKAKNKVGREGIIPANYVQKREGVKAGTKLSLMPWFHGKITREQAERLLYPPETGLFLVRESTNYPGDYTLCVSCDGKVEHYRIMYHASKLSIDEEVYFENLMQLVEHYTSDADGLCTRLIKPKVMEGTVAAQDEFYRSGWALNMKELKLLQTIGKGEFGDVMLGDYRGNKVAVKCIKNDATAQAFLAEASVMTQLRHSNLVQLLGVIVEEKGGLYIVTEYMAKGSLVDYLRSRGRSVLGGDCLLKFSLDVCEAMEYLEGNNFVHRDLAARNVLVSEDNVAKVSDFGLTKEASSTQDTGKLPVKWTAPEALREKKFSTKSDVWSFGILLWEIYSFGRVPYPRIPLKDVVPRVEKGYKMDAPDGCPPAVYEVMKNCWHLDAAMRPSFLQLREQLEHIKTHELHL
UniProt P48729: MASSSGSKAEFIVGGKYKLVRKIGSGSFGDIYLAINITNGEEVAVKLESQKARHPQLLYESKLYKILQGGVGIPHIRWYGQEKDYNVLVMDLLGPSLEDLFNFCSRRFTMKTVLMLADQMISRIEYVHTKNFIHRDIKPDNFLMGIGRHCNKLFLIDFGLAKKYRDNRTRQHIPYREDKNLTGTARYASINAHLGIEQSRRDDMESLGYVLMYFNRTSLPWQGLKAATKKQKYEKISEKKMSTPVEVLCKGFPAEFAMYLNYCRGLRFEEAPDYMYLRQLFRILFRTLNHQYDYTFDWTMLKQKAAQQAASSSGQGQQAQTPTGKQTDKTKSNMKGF
UniProt P48730: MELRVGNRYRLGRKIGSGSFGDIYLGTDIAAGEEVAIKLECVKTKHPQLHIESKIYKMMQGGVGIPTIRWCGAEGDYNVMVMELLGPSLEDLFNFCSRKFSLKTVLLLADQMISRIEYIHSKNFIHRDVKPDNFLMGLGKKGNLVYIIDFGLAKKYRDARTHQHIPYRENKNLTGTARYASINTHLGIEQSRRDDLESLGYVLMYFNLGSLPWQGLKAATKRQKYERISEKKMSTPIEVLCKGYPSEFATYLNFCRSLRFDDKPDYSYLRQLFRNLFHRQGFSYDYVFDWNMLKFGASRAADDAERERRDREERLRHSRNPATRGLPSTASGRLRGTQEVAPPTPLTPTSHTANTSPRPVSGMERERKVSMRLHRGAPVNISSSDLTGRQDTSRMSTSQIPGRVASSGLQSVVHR
UniProt Q9Y463, whole entry, looked up: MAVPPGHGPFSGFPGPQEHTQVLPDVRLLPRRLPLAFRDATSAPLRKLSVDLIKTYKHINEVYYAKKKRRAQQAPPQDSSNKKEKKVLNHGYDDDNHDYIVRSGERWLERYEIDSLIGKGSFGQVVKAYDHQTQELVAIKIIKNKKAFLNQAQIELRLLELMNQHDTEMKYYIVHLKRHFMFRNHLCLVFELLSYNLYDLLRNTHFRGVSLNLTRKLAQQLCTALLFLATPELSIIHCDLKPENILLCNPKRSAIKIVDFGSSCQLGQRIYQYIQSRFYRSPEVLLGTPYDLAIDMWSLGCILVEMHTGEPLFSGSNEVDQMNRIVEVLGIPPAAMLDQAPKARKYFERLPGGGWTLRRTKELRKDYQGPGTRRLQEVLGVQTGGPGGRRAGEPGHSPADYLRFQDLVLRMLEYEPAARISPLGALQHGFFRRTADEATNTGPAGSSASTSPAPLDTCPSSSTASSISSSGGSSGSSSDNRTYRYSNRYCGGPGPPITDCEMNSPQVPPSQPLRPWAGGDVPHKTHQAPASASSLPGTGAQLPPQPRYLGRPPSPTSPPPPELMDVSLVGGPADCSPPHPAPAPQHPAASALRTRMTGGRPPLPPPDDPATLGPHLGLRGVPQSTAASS
UniProt Q92630: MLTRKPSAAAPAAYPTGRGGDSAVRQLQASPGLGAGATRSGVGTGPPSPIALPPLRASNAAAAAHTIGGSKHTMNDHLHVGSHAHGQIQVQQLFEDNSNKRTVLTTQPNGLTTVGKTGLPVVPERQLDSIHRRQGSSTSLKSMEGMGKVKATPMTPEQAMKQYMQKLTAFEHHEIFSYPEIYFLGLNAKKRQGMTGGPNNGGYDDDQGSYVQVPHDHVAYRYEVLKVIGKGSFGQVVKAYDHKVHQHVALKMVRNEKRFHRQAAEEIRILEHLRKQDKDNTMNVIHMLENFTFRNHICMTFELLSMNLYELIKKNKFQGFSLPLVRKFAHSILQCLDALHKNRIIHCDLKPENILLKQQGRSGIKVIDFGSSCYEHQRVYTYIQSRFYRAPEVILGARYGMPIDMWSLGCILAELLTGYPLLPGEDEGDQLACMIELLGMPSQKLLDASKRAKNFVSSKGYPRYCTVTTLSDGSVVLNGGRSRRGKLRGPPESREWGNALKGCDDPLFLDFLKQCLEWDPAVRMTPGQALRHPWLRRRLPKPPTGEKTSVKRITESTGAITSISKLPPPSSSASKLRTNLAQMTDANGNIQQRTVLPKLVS

Assays:
Assay in all cases: number of time points (of 5) at which kinase-Nluc abundance scored as decreased, DMSO-normalised (count); higher = more persistent destabilization
Conditions in all cases: K562; 2-18 h
[1] = target: CAMK2A (UniProt Q9UQM7)
[2] = target: CAMK2G (UniProt Q13555)
[3] = target: CDK10 (UniProt Q15131)
[4] = target: CDK2 (UniProt P24941)
[5] = target: CDK3 (UniProt Q00526)
[6] = target: CDK5 (UniProt Q00535)
[7] = target: CDK6 (UniProt Q00534)
[8] = target: CHEK2 (UniProt O96017)
[9] = target: CSF1R (UniProt P07333)
[10] = target: CSK (UniProt P41240)
[11] = target: CSNK1A1 (UniProt P48729)
[12] = target: CSNK1D (UniProt P48730)
[13] = target: DDR1 (UniProt Q08345)
[14] = target: DYRK1B (UniProt Q9Y463)
[15] = target: DYRK2 (UniProt Q92630)
[16] = target: EGFR (UniProt P00533)
[17] = target: EGFR_G719S (UniProt P00533)
[18] = target: EGFR_G719S_T790M (UniProt P00533)
[19] = target: EGFR_L718V (UniProt P00533)
[20] = target: EGFR_L858R (UniProt P00533)

Measured: number of time points

Cc1ccc(NC(=O)Nc2cc(C(F)(F)F)ccc2F)cc1Nc1ccc2c(c1)NC(=O)/C2=C\c1ccc[nH]1 (2.5 µM)
1: [9]
0: all other assays above

C[C@H]1O[C@@H](O[C@H]2CC[C@@]3(C)[C@@H](CC[C@]4(C)[C@@H]3C=C[C@]35OC[C@@]6(CCC(C)(C)C[C@H]63)[C@H](O)C[C@]54C)[C@]2(C)CO)[C@H](O)[C@@H](O[C@@H]2O[C@H](CO)[C@@H](O)[C@H](O)[C@H]2O)[C@H]1O [Saikosaponin D] (2.5 µM)
4: [2] | [8]
0: all other assays above

CC(Sc1nc2c(cnn2-c2cccc(Cl)c2)c(=O)[nH]1)C(N)=O (stereo not given) (10 µM)
0: all assays above

Cc1ccc(-n2nc(C(C)(C)C)cc2NC(=O)Nc2ccc(OCCN3CCOCC3)cc2)cc1 (10 µM)
0: all assays above

O=C(NCCN1CCOCC1)Nc1nc2ccc(Sc3nnc4ccc(-c5ccc(F)cc5)nn34)cc2s1 (10 µM)
0: all assays above

O=c1cc(N2CCOCC2)oc2c(-c3ccc4c(c3)OCCO4)csc12 (2.5 µM)
0: all assays above

Cc1cc(C(=O)Nc2nc3cccc(Cl)c3n2[C@@H]2CCCCN(C(=O)/C=C/CN(C)C)C2)ccn1 [Nazartinib] (10 µM)
0: all assays above

CCCCCc1ccc(/C=C/[C@H](O)[C@@H](CO)NC)cc1 [SK1-I (hydrochloride)] (10 µM)
0: all assays above

Clc1ccc(C(c2ccc(Cl)cc2)[n+]2ccn(CC(OCc3ccc(Cl)cc3Cl)c3ccc(Cl)cc3Cl)c2)cc1 (stereo not given) [Calmidazolium chloride] (2.5 µM)
2: [3] | [14]
1: [13]
0: all other assays above

COc1cc2ncnc(Oc3ccc(CC(=O)Nc4cnn(C(C)C)c4)cc3)c2cc1OC (10 µM)
2: [9]
3: [15]
0: all other assays above

COc1c(O)cc2oc(-c3ccc(O)cc3)cc(=O)c2c1O [Hispidulin] (10 µM)
0: all assays above

Cc1cnc(NC(=O)c2cc(Oc3cnc(C(=O)N(C)C)nc3)c3cc(C)oc3c2)cn1 (10 µM)
0: all assays above

CC(C)(C)Cc1[nH]nc2c1[C@@](C)(c1ccccc1)C1=C(CC(C)(C)CC1=O)N2 (10 µM)
0: all assays above

c1ccc(Cn2c(-c3ccc(OC[C@H](C4CCNCC4)n4c(-c5ccccc5)nc5ccccc54)cc3)nc3ccccc32)cc1 [Deltarasin] (2.5 µM)
0: all assays above

CN1CCN(c2cc(-c3ccncc3)c(-c3ccc4ccccc4c3)nn2)CC1 (10 µM)
0: all assays above

CNC(=O)CNc1cnc2ccc(-c3ccc(OC)c(OC)c3)cc2n1 (10 µM)
0: all assays above

O=c1cc(-c2ccccc2)oc2cc(O[C@@H]3O[C@H](CO[C@@H]4O[C@H](CO)[C@@H](O)[C@H](O)[C@H]4O)[C@@H](O)[C@H](O)[C@H]3O)c(O)c(O)c12 [Oroxin B] (10 µM)
0: all assays above

COC(=O)[C@H](CCSC)NC(=O)c1ccc(NC[C@@H](N)CS)cc1-c1ccccc1 [FTI-277 (hydrochloride)] (10 µM)
0: all assays above

N#Cc1ccc(-c2cnc3[nH]cc(NC(=O)c4cccnc4)c3c2)cc1 (10 µM)
0: all assays above

CNC(=O)c1ccc2c(c1)ncn2-c1ccc(CC(=O)OC(C)(C)C)cc1 (10 µM)
0: all assays above

COc1cc(N2CCOCC2)ccc1Nc1ncc(F)c(Nc2ccccc2NS(C)(=O)=O)n1 (10 µM)
0: all assays above

Cc1cc(C)cc(NC(N)=Nc2ccccc2C(F)(F)F)c1 (10 µM)
0: all assays above

CCN(CC)CCCC(C)Nc1nc(C)cc(Nc2ccc3nc(C)cc(N)c3c2)n1 (stereo not given) (10 µM)
0: all assays above

No new results follow: 3 of the compounds above.
COc1cc(N2CCOCC2)ccc1Nc1ncc(F)c(Nc2ccccc2NS(C)(=O)=O)n1 (10 µM)
0: all assays above

Cc1cc(C)cc(NC(N)=Nc2ccccc2C(F)(F)F)c1 (10 µM)
0: all assays above

CCN(CC)CCCC(C)Nc1nc(C)cc(Nc2ccc3nc(C)cc(N)c3c2)n1 (stereo not given) (10 µM)
0: all assays above

Later entries.

N#Cc1ccc2ncnc(NCCc3ccccc3)c2c1 [Senexin A] (10 µM)
0: all assays above

Cc1ccc(C(=O)NC2CC2)cc1-n1ncc(C(=O)c2cccc(C#N)c2)c1N [Acumapimod] (10 µM)
2: [15]
0: all other assays above

COc1cc(F)ccc1-c1ncnc(Nc2cccc(C[S@](C)(=N)=O)c2)n1 [Atuveciclib] (2.5 µM)
1: [1] | [20]
4: [15]
2: [8] | [17] | [18]
0: all other assays above

COc1cc2c(cc1OC)/C(=C/c1ccc(O)cc1)C(=O)N2 (10 µM)
0: all assays above

O=C(Nc1cccnc1)c1cc(-c2ccnc(F)c2)ccc1OCc1ccccc1 (10 µM)
0: all assays above

Cc1cccc(-c2[nH]ncc2-c2ccnc3ccccc23)n1 (10 µM)
0: all assays above

COc1ccc2c(Oc3ccc4c(C(=O)Nc5ccccc5N)cccc4c3)ccnc2c1 [Chiauranib] (10 µM)
4: [3]
1: [13]
2: [15]
5: [9]
3: [12]
0: all other assays above

Fc1ccc2[nH]ccc2c1-c1nc(N2CCOCC2)c2sc(CN3CCN(CC4CC4)CC3)cc2n1 (10 µM)
0: all assays above

Cc1cccc(/C=N/Nc2cc(N3CCOCC3)n3nc(-c4ccncc4)cc3n2)c1 (10 µM)
1: [15]
0: all other assays above

CCNC(=O)C#Cc1ccc2c(C(=Nc3ccc(CN(C)C)cc3)c3ccccc3)c(O)[nH]c2c1 (2.5 µM)
0: all assays above

CC(C)Oc1ccc(F)c(-c2cnc(N)c(C(=O)Nc3cnccc3N3CCC[C@@H](C(=O)O)C3)n2)c1 (2 µM)
3: [15]
1: [13] | [20]
0: all other assays above

COc1cc2c(cc1Nc1ncc(C(N)=O)c(Nc3c(F)cccc3C(F)(F)F)n1)CN(C)CC2 (2.5 µM)
0: all assays above

Cn1c(=O)c2c(nc(S(C)(=O)=O)n2C)n(CC#Cc2cccc(O)c2)c1=O (2.5 µM)
1: [9] | [13]
0: all other assays above

c1nc2c(NC3CCCCC3)nc(Nc3ccc(N4CCOCC4)cc3)nc2[nH]1 [Reversine] (10 µM)
1: [8] | [13] | [20]
4: [15]
0: all other assays above

O=C(O)c1cc(N(Cc2ccccc2O)Cc2cc(O)ccc2O)ccc1O [Lavendustin A] (10 µM)
1: [8]
0: all other assays above

Cc1cc(-n2c(=O)ccc3c[nH]c4nccc-4c32)ccc1F (10 µM)
1: [15]
0: all other assays above

O=c1c2c([nH]n1-c1nc3ccccc3s1)CCCC2 (10 µM)
0: all assays above

C#Cc1cccc(Nc2ncnc3cc(OC)c(NC(=O)N4C[C@H]5CCN(C)[C@H]5C4)cc23)c1 [Theliatinib] (10 µM)
0: all assays above

CNC(=O)c1cc2c(Oc3ccc(NC(=O)C4(C(=O)Nc5ccc(F)cc5)CC4)cc3)ccnc2cc1OC (2.5 µM)
2: [8] | [12] | [19] | [20]
0: [1] | [4] | [5] | [6] | [7] | [10]
4: [15]
3: [9]
1: all other assays above

O=C1Nc2ccc(I)cc2/C1=C/c1cc(Br)c(O)c(Br)c1 (10 µM)
1: [2]
2: [8] | [12] | [16]
4: [1]
3: [5] | [7] | [11] | [17]
0: all other assays above

COC(=O)Nc1ccc(-c2nc(N3CCOCC3)c3cnn(C4CCN(Cc5cccnc5)CC4)c3n2)cc1 (10 µM)
0: all assays above

CC(O)(C#Cc1ccc2c(c1)N(c1nc(N)ncc1Cl)CC2)c1nccs1 (stereo not given) (2.5 µM)
0: all assays above

C=C1CCC[C@]2(C)C=C3OC(=O)C(C)=C3C[C@@H]12 [Atractylenolide I] (10 µM)
0: all assays above

COc1cc(N2CCC(N3CCN(C)CC3)CC2)ccc1Nc1ncc(Cl)c(-c2c[nH]c3ccccc23)n1 (2.5 µM)
0: all assays above

CNC(=O)c1ccc2c(C(=Nc3cccc(CN(C)C)c3)c3ccccc3)c(O)[nH]c2c1 [MEK inhibitor] (10 µM)
0: all assays above
